Drawing on PMC11383945, this text covers binding for one substance.

Protein sequences, listed by entry. Tags and fused reporters are not part of them. Lines headed by an entry give the natural chain unless they say otherwise; changes in a name come on top.
UniProt P35240: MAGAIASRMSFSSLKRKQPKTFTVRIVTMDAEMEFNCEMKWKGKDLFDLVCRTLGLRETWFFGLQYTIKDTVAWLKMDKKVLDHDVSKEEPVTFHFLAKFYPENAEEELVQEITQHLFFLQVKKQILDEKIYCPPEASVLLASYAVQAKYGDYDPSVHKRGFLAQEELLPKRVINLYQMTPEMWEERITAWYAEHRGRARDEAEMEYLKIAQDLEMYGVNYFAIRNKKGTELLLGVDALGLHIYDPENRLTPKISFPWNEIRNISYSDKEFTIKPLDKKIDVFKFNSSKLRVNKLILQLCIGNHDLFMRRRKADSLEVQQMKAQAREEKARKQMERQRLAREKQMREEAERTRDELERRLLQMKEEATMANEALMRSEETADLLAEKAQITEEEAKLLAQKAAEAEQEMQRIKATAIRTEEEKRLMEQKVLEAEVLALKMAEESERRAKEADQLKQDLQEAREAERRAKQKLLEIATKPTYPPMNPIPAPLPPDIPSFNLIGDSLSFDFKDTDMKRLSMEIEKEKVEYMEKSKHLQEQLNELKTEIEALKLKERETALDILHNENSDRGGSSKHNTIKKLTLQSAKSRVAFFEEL
UniProt P35222: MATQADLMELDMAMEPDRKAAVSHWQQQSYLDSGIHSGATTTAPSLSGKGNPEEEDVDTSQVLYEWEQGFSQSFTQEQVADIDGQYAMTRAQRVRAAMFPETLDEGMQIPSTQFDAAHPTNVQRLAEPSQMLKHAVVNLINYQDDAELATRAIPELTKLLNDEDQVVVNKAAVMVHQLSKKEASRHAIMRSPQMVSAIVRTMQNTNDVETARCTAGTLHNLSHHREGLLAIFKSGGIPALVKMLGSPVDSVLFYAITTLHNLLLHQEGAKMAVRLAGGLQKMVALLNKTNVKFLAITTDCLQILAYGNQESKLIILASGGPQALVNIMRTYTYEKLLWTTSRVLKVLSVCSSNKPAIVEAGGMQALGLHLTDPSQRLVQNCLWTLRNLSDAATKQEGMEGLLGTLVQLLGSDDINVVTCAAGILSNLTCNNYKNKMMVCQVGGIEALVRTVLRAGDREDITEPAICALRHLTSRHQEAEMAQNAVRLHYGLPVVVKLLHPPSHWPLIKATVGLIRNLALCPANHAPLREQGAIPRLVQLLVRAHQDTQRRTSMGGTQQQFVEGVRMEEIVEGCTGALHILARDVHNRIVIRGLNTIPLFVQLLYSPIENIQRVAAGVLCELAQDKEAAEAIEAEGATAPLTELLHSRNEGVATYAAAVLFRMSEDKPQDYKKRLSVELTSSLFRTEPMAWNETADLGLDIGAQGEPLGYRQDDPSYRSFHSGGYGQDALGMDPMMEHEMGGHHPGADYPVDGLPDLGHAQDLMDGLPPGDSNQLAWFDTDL

Results are given in words; binding and its absence hold for the method and conditions named. In cells and extracts the contact can be indirect. Some binding calls cover weakened binding; strength is not graded here.

Experiment [1] deals with Merlin^S13D, FLAG-tagged, doxycycline-inducible (human) (UniProt P35240). As to the kind of experiment: co-IP; FLAG immunoprecipitation (FLAG antibody beads, 4 h at 4 °C) from M10G lysates in JIES buffer (100 mM NaCl2, 20 mM Tris-HCl pH 7.4, 5 mM MgCl2, 0.5% NP40), doxycycline 1 μg/ml; immunoblot for β-catenin. (A western blot detects proteins with antibodies after separation by electrophoresis.)

Experiment [2] deals with Merlin^S13A, FLAG-tagged, doxycycline-inducible (human) (UniProt P35240). The description is as above.

Turning to “β-catenin (endogenous, M10G meningioma cells) (from UniProt P35222 1-781)”, the binding result is on record as “binds” in experiment [1] and “no binding” in experiment [2].
